The exact form of at least one protein or probe is not confirmed. For some of these results: A negative result means that nothing was seen under these conditions. For some of these results: Weaker means in comparison with the reference protein, sequence or condition of that experiment. For some of these results: At least one verdict was read from the data and is not stated in words by the source. For some of these results: Tags and fusion partners may be left off the protein sequences shown.

Amino acid sequences for entries named in this document (tags omitted). A change or cut given only in a name is not applied to a line headed by its entry.
UniProt Q07021: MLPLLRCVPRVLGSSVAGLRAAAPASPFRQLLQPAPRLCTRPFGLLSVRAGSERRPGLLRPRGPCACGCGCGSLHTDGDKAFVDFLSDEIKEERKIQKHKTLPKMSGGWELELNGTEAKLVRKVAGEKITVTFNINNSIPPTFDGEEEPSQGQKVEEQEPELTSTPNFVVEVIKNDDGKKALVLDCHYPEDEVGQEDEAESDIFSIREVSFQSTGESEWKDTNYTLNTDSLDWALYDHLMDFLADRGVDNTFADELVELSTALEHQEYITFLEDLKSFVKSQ

One sequence from publication PMC3750045, “Human RNase H1 Is Associated with Protein P32 and Is Involved in Mitochondrial Pre-rRNA Processing” (PLoS ONE, 2013) can be followed below.

One data set has as its target GST-P32 (Homo sapiens) (UniProt Q07021). The experiment in a line: EMSA. To be noted: 2 mM Mg2+, 4 C; strand 1 uniformly 2'-fluoro RNA; strand 2 DNA; EMSA: 20 mM Tris pH 7.0, 20 mM NaCl, 2 mM MgCl2, 5% glycerol, 30 min at 4 C; recombinant protein; protein details: N-terminal GST; label: 32P (5' end); synthetic backbone.
For data set [1], the target named is T1, His-RNase H1 (Homo sapiens) (UniProt O60930).
T1 sequence (looked up): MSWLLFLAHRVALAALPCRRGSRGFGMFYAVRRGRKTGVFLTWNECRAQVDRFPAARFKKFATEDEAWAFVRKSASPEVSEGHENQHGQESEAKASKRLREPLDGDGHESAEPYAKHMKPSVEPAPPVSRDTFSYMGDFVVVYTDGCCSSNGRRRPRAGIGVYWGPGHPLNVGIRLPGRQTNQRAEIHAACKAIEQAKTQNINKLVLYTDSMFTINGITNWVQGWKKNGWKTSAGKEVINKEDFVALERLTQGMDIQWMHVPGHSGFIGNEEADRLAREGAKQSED
The experiment in a line: competition (inhibition of cleavage of the Apo B RNA/DNA duplex). To be noted: plus GST control, value only in figure; strand 1 uniformly 2'-fluoro RNA; strand 2 DNA; EMSA: 20 mM Tris pH 7.0, 20 mM NaCl, 2 mM MgCl2, 5% glycerol, 30 min at 4 C; recombinant protein; residues 1-286; protein details: N-terminal His; label: 32P (5' end); synthetic backbone. For orientation: In EMSA bound probe runs differently from free probe, usually more slowly.

Another data set deals with His-RNase H1 + GST-P32. The data set is described as above. To be noted: value only in figure, strand 1 uniformly 2'-fluoro RNA, strand 2 DNA, EMSA: 20 mM Tris pH 7.0, 20 mM NaCl, 2 mM MgCl2, 5% glycerol, 30 min at 4 C, recombinant protein, protein details: N-terminal His,N-terminal GST, label: 32P (5' end), synthetic backbone.

Regarding “GGAUGGUAGCACAAGUGACA / TGTCCTTGTGCTACCATCC [Duplex B, non-cleavable Apo B 2'-fluoro RNA/DNA heteroduplex]”, the binding result was “no binding” in the data set with GST-P32 (Homo sapiens); “binds” in data set [1]; “binds more weakly” in the data set on His-RNase H1 + GST-P32 (H1:P32 1:1, Kd increase similar to ~4-fold Km increase vs GST control); “binds more weakly” with His-RNase H1 + GST-P32 (H1:P32 1:5, Kd increase similar to ~5-fold Km increase vs GST control).
